Results deposited as PubChem BioAssay AID1259425 (University of Nebraska Medical Center, 2018).

Purpose: 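Find knockdowns that reproduce the gene expression pattern seen when KSR1 is lost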 (primary screen)
Cell system: HCT116 human colon cancer cells
Reagent: siRNA pool against human genes, 50 nM siRNA
Measurement: 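After 50 nM siRNA pool, branched-DNA assay measures six marker transcripts per well, minus blank, normalised to the geometric mean of two housekeeping transcripts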
Direction: BNIP3L mRNA: higher = more BNIP3L transcript after knockdown
The whole screen tested about 14,000 reagents; this is a part drawn at random. Further read-outs or replicates are left out here. No sequences are given here. The record does not give: the time to read-out.

no.	Gene	BNIP3L mRNA, set 1
1	DENND4A (DENN domain containing 4A)	0.0894
2	PHF19 (PHD finger protein 19)	0.161
3	NAA16 (N-alpha-acetyltransferase 16, NatA auxiliary subunit)	0.136
4	ATG9A (autophagy related 9A)	0.136
5	TM9SF2 (transmembrane 9 superfamily member 2)	0.156
6	MAGEF1 (MAGE family member F1)	0.124
7	EHD2 (EH domain containing 2)	0.051
8	TAS2R4 (taste 2 receptor member 4)	0.146
9	NKX2-5 (NK2 homeobox 5)	0.08
10	ADGRB1 (adhesion G protein-coupled receptor B1)	0.159
11	PI4K2A (phosphatidylinositol 4-kinase type 2 alpha)	0.0801
12	CYP24A1 (cytochrome P450 family 24 subfamily A member 1)	0.0958
13	ZBTB7A (zinc finger and BTB domain containing 7A)	0.0856
14	LINC00839 (long independently transcribed non-coding RNA 839)	0.509
15	SHMT1 (serine hydroxymethyltransferase 1)	0.112
16	LDHB (lactate dehydrogenase B)	0.114
17	TTC21B (tetratricopeptide repeat domain 21B)	0.0784
18	FAM90A1 (family with sequence similarity 90 member A1)	0.0764
19	C6orf62 (chromosome 6 open reading frame 62)	0.0886
20	NUCKS1	0.138
21	SMUG1	0.092
22	RLF (RLF zinc finger)	0.112
23	HLA-DMA (major histocompatibility complex, class II, DM alpha)	0.0982
24	ITPR2 (inositol 1,4,5-trisphosphate receptor type 2)	0.114
25	FRMD4A (FERM domain containing 4A)	0.134
26	NAT9 (N-acetyltransferase 9)	0.179
27	NPM3 (nucleophosmin/nucleoplasmin 3)	0.0816
28	NCOA2 (nuclear receptor coactivator 2)	0.0485
29	RBBP6 (RB binding protein 6, ubiquitin ligase)	0.122
30	ADAM23 (ADAM metallopeptidase domain 23)	0.0939
31	TSPAN3 (tetraspanin 3)	0.0867
32	IL9 (interleukin 9)	0.0608

3 entries from above, ordered by “BNIP3L mRNA, set 1”, low to high:
Gene	BNIP3L mRNA, set 1
NAA16 (N-alpha-acetyltransferase 16, NatA auxiliary subunit)	0.136
ATG9A (autophagy related 9A)	0.136
PHF19 (PHD finger protein 19)	0.161

Continued.
no.	Gene	BNIP3L mRNA, set 1
33	SLC45A4	0.106
34	IL12B (interleukin 12B)	0.0574
35	TCP1 (t-complex 1)	0.278
36	FTH1 (ferritin heavy chain 1)	0.0936
37	STAC (SH3 and cysteine rich domain)	0.157
38	PTCD2 (pentatricopeptide repeat domain 2)	0.122
39	DIP2C (DIP2 acetate--CoA ligase C (putative))	0.105
40	NUTM2F (NUT family member 2F)	0.0867
41	MLF2 (myeloid leukemia factor 2)	0.0509
42	LCK (LCK proto-oncogene, Src family tyrosine kinase)	0.263
43	PURB (purine rich element binding protein B)	0.0293
44	ZDHHC9 (zDHHC palmitoyltransferase 9)	0.14
45	SLC7A6OS	0.382
46	PRSS50 (serine protease 50)	0.0691
47	CSPG4 (chondroitin sulfate proteoglycan 4)	0.15
48	LZTS1 (leucine zipper tumor suppressor 1)	0.128
49	RFXAP (regulatory factor X associated protein)	0.0724
50	COL4A3 (collagen type IV alpha 3 chain)	0.112
